B1: 14-3-3σ Ser69Ala mutant (protein, UniProt P31947 1-248)
chain: MERASLIQKAKLAEQAERYEDMAAFMKGAVEKGEELSCEERNLLSVAYKNVVGGQRAAWRVLSSIEQKANEEGSEEKGPEVREYREKVETELQGVCDTVLGLLDSHLIKEAGDAESRVFYLKMKGDYYRYLAEVATGDDKKRIIDSARSAYQEAMDISKKEMPPTNPIRLGLALNFSVFHYEIANSPEEAISLAKTTFDEAMADLHTLSEDSYKDSTLIMQLLRDNLTLWTADNAGEEGGEAPQEPQS
B2: 14-3-3σ Ser74Ala mutant (protein, UniProt P31947 1-248)
chain: MERASLIQKAKLAEQAERYEDMAAFMKGAVEKGEELSCEERNLLSVAYKNVVGGQRAAWRVLSSIEQKSNEEGAEEKGPEVREYREKVETELQGVCDTVLGLLDSHLIKEAGDAESRVFYLKMKGDYYRYLAEVATGDDKKRIIDSARSAYQEAMDISKKEMPPTNPIRLGLALNFSVFHYEIANSPEEAISLAKTTFDEAMADLHTLSEDSYKDSTLIMQLLRDNLTLWTADNAGEEGGEAPQEPQS
B3: 14-3-3σ double Ser69/74Ala mutant (protein, UniProt P31947 1-248)
chain: MERASLIQKAKLAEQAERYEDMAAFMKGAVEKGEELSCEERNLLSVAYKNVVGGQRAAWRVLSSIEQKANEEGAEEKGPEVREYREKVETELQGVCDTVLGLLDSHLIKEAGDAESRVFYLKMKGDYYRYLAEVATGDDKKRIIDSARSAYQEAMDISKKEMPPTNPIRLGLALNFSVFHYEIANSPEEAISLAKTTFDEAMADLHTLSEDSYKDSTLIMQLLRDNLTLWTADNAGEEGGEAPQEPQS

The chains behind the UniProt entries cited, without tags or fusion partners.
UniProt P84022: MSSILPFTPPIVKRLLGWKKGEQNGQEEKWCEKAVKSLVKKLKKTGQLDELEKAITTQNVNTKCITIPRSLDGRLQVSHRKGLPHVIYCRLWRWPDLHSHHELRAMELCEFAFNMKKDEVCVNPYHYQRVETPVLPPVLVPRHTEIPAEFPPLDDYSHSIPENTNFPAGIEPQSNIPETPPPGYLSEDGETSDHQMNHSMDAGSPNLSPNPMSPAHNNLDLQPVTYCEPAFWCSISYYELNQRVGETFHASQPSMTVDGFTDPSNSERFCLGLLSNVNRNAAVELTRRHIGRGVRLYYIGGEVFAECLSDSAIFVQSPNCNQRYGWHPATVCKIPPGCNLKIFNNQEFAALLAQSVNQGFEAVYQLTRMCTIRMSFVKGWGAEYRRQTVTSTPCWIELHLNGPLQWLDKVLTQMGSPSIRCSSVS

Results are given in words; binding and its absence hold for the method and conditions named. In cells and extracts the contact can be indirect. Some entries that bind do so weakly or less than the wild type.

For this test, the target named is Smad3 (ectopically expressed) (UniProt P84022). Briefly: co-IP; HEK293T cells transfected with Smad3 and wild-type or mutant 14-3-3σ constructs, with TGFβ1 treatment and co-transfected constitutively active TβR-I; co-precipitated 14-3-3σ detected by blot; protein A-Sepharose, 6 hours at 4°C.
B1: the binding entry is “binds”.

As for B2, the binding result is “binds”.

For B3, the binding entry was “no binding”.

The values above are taken from publication PMC3669286.
